For the assay, the target named is SLC15A4-GFP and SLC15A4-mCherry (two differently labelled copies for FRET) (human) (UniProt Q8N697). Put plainly: FRET or BRET; SLC15A4-GFP and SLC15A4-mCherry co-transfected in HEK293T; dequenching FRET (acceptor bleaching) on a Nikon A1 HD25 microscope 48 h after transfection.

The chains behind the UniProt entries cited, without tags or fusion partners.
UniProt Q8N697: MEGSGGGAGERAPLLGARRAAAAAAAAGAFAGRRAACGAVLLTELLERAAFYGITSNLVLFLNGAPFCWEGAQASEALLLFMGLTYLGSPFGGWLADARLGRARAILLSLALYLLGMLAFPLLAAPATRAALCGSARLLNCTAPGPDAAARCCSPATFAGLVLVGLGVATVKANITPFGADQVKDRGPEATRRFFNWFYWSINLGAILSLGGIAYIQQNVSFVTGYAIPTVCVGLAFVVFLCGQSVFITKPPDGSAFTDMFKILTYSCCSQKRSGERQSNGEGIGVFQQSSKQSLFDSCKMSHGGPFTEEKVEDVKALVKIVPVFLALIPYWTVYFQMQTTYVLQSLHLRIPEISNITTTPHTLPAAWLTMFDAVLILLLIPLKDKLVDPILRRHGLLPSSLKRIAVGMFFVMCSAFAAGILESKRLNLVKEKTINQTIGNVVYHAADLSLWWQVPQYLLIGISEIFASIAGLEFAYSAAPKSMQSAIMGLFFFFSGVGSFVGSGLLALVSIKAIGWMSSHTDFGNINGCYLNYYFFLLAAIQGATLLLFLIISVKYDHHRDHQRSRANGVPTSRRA

This is an account of results in publication PMC10589346.

These are yes or no findings as the source states them, for the method shown. Binding seen in cells or lysates may run through a third protein. Some entries that bind do so weakly or less than the wild type.

For “SLC15A4-GFP and SLC15A4-mCherry (two differently labelled copies for FRET) (from UniProt Q8N697 1-577)”, the binding result is “binds”.
